From US20090221440A1
No constants are given. Whether binding was seen depends on the method and setting. For some of these results: In cells and extracts the contact can be indirect. Some entries that bind do so weakly or less than the wild type.

Sequences of proteins named here, by UniProt entry; tags and fusion partners are left off. A change or cut given only in a name is not applied to a line headed by its entry.
UniProt P31749: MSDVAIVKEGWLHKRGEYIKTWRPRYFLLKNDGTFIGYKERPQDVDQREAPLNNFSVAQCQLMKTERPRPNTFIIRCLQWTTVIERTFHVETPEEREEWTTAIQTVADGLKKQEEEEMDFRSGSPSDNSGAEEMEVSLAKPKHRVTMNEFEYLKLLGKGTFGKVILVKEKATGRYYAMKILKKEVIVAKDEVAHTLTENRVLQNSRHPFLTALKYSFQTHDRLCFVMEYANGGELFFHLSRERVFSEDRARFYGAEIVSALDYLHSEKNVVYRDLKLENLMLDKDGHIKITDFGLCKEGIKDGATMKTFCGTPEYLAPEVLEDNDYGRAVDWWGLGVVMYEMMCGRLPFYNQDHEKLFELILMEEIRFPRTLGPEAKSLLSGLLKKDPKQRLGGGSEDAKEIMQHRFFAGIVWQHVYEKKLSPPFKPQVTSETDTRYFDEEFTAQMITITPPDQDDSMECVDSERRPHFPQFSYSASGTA
UniProt O43707: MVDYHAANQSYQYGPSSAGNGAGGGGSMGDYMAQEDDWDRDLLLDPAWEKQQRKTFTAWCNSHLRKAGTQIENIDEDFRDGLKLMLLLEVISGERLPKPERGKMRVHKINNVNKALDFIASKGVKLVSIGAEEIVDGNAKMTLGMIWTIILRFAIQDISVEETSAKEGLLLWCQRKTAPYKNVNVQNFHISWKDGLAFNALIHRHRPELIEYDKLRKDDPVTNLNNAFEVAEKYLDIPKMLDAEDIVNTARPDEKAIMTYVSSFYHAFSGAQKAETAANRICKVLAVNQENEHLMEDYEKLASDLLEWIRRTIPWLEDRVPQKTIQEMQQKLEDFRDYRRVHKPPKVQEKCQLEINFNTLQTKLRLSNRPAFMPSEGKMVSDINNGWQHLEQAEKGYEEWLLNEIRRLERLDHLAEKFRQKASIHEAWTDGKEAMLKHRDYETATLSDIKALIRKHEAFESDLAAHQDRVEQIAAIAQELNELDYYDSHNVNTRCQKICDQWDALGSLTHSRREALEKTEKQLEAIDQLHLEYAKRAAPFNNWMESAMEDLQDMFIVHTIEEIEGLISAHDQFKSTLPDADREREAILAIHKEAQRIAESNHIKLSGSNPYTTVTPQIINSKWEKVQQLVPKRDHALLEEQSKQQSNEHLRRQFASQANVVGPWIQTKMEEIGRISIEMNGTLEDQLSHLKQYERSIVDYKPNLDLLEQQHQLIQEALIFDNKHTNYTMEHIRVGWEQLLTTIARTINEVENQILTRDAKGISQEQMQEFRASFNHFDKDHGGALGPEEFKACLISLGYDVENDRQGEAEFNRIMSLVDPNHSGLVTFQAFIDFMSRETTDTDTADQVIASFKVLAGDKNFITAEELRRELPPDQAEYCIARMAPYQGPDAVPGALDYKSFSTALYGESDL

Assays:
IFP-F[1]-AKT1 [1] = target: IFP-F[1]-AKT1 (UniProt P31749); assay: co-immunoprecipitation from RIPA lysate of clone No. 5, IP anti-AKT1, western blot anti-GFP
IFP-F[1]-AKT1 [2] = target: IFP-F[1]-AKT1 (UniProt P31749); assay: ReMTH screen: fluorescent cells sorted after retroviral IFP-F[2] tagging in IFP-F[1]-AKT1 HeLa Tet-on cells
IFP-F[1]-AKT1 [3] = target: IFP-F[1]-AKT1 (UniProt P31749); assay: IFP fragment complementation (PCA), fluorescence microscopy of clone No. 5
IFP-F[1]-AKT1 [4] = target: IFP-F[1]-AKT1 (UniProt P31749); assay: ReMTH screen; table of potential novel interaction partners of AKT1

Measured: binding

IFP-F[2]-ACTN4 fusion of clone No. 5 (from UniProt O43707 53-911)
binds: all assays above
